Measured values: publication doi:10.1101/250936
No constants are given. Whether binding was seen depends on the method and setting. In cells and extracts the contact can be indirect. Some binding calls cover weakened binding; strength is not graded here.

Chains of the proteins cited; added tags and fusions are not shown.
UniProt P27986: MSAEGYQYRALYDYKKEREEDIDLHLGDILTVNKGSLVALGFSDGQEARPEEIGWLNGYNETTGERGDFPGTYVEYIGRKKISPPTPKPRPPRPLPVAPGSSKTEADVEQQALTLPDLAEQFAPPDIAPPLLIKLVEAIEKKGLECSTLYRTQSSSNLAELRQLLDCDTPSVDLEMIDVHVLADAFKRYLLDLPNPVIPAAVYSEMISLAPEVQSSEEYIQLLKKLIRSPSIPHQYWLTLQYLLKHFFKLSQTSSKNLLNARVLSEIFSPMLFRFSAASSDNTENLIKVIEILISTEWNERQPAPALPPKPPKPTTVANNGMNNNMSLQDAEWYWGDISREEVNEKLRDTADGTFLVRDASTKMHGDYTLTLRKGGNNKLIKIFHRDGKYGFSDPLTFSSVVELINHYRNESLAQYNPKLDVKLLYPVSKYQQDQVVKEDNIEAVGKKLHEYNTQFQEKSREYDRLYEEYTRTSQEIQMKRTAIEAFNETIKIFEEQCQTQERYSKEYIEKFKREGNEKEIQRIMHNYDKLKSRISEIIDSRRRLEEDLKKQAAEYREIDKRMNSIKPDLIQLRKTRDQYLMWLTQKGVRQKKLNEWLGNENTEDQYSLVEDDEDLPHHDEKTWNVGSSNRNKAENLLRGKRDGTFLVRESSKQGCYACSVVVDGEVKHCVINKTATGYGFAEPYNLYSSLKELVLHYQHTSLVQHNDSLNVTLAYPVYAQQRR
UniProt Q99755: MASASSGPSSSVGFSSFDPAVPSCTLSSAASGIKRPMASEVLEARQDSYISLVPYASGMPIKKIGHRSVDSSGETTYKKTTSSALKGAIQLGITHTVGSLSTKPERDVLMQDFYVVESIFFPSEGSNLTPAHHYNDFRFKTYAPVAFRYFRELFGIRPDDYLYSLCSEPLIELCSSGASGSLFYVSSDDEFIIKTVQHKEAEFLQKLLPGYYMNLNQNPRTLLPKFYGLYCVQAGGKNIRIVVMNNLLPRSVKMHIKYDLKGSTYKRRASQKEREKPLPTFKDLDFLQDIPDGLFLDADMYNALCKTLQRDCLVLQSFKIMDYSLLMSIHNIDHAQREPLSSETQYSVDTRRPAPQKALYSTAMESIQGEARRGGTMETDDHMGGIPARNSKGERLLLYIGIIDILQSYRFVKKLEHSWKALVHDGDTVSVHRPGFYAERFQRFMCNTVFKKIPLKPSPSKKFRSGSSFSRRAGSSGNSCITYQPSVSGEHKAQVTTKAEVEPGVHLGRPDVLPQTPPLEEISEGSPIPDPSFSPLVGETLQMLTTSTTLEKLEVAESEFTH

Tests used:
[1] = molecular target: Myc-tagged WT IQGAP1 (IQ motif-containing GTPase-activating protein 1) (UniProt P46940); assay: proximity ligation
[2] = molecular target: Myc-tagged WT IQGAP1 (IQ motif-containing GTPase-activating protein 1) (UniProt P46940); assay: co-IP
[3] = molecular target: Myc-tagged WT IQGAP1 (IQ motif-containing GTPase-activating protein 1) (UniProt P46940); assay: proximity ligation; remark: listed apart in the source
[4] = molecular target: Myc-tagged WT IQGAP1 (IQ motif-containing GTPase-activating protein 1) (UniProt P46940); assay: co-IP; remark: listed apart in the source

Q: What does the source list for “PI3K regulatory subunit p85α (from UniProt P27986 1-724)”?
A: binding [1]: binds; binding [2]: binds

Q: PIPKIα (from UniProt Q99755 1-562) was tested. Which binding [3] did it give?
A: binds

Q: What about the binding [1] of the same molecule?
A: binds

Q: What about the binding [2] of the same molecule?
A: binds

Q: For “Epidermal growth factor receptor (EGFR) (from UniProt P00533 25-1210)”, which binding [3] is on record?
A: binds

Q: And the binding [1]?
A: binds

Q: And the binding [2]?
A: binds

B1: PDK1 (protein, UniProt O15530 1-556)
chain: MARTTSQLYDAVPIQSSVVLCSCPSPSMVRTQTESSTPPGIPGGSRQGPAMDGTAAEPRPGAGSLQHAQPPPQPRKKRPEDFKFGKILGEGSFSTVVLARELATSREYAIKILEKRHIIKENKVPYVTRERDVMSRLDHPFFVKLYFTFQDDEKLYFGLSYAKNGELLKYIRKIGSFDETCTRFYTAEIVSALEYLHGKGIIHRDLKPENILLNEDMHIQITDFGTAKVLSPESKQARANSFVGTAQYVSPELLTEKSACKSSDLWALGCIIYQLVAGLPPFRAGNEYLIFQKIIKLEYDFPEKFFPKARDLVEKLLVLDATKRLGCEEMEGYGPLKAHPFFESVTWENLHQQTPPKLTAYLPAMSEDDEDCYGNYDNLLSQFGCMQVSSSSSSHSLSASDTGLPQRSGSNIEQYIHDLDSNSFELDLQFSEDEKRLLLEKQAGGNPWHQFVENNLILKMGPVDKRKGLFARRRQLLLTEGPHLYYVDPVNKVLKGEIPWSQELRPEAKNFKTFFVHTPNRTYYLMDPSGNAHKWCRKIQEVWRQRYQSHPDAAVQ
Q: With B1 as the molecule, how does the binding [4] read?
A: binds
